Reference: patent publication US7718186B2, “2-alkoxy-6-alkylphenyl-substituted spirocyclic tetramic acid derivatives” (Bayer CropScience AG, priority 2004, dated 2010)
Some of these results come from one statement about several compounds together.

How the values were obtained:
Assay type in all cases: in vivo
Lolium multiflorum [1] = experiment: Herbicidal post-emergence action; conditions: 320 g of a.i./ha, about 3 weeks
Procedure: (§1) 2. Herbicidal Post-emergence Action
(§2) Seeds of monocotyledonous and dicotyledonous weed and crop plants are placed into sandy loam in wood fiber pots, covered with soil and cultivated in the greenhouse under good growth conditions. Two to three weeks after sowing, the test plants are treated at the one-leaf stage. The test compounds, formulated as wettable powders (WP), are then, in various dosages with a water application rate of 600 l/ha (converted), with 0.2% of wetting agent added, sprayed onto the green parts of the plants. After the test plants have been kept in the greenhouse under optimum growth conditions for about 3 weeks, the effect of the preparations is rated visually in comparison to untreated controls (herbicidal effect in percent (%): 100% effect=the plants have died, 0% effect=like control plants).

Echinocloa crus-galli = experiment: Herbicidal post-emergence action; conditions: 320 g of a.i./ha, about 3 weeks
Procedure: as §1, §2

Setaria viridis [2] = experiment: Herbicidal post-emergence action; conditions: 320 g of a.i./ha, about 3 weeks
Procedure: as §1, §2

Avena sativa [3] = experiment: Herbicidal pre-emergence action; conditions: 320 g of a.i./ha, 3 weeks
Source text: (§3) 1. Herbicidal Pre-emergence Action
(§4) Seeds of monocotyledonous and dicotyledonous weed and crop plants are placed into sandy loam in wood fiber pots and covered with soil. The test compounds, formulated in the form of wettable powders (WP) are then, as an aqueous suspension with a water application rate of 600 l/ha (converted), with 0.2% of wetting agent added, applied to the surface of the covering soil in various dosages.
(§5) After the treatment, the pots are placed in the greenhouse and kept under good growth conditions for the test plants. The visual assessment of the emergence damage on the test plants is carried out after a trial period of 3 weeks by comparison with untreated controls (herbicidal effect in percent (%): 100% effect=the plants have died, 0% effect=like control plants).

Lolium multiflorum [4] = experiment: Herbicidal pre-emergence action; conditions: 320 g of a.i./ha, 3 weeks
Source text: as §3, §4, §5

Setaria viridis [5] = experiment: Herbicidal pre-emergence action; conditions: 320 g of a.i./ha, 3 weeks
Source text: as §3, §4, §5

Avena sativa [6] = experiment: Herbicidal post-emergence action; conditions: 320 g of a.i./ha, about 3 weeks
[7] = tested on: larvae of the mustard beetle (Phaedon cochleariae); experiment: Phaedon test (spray treatment); conditions: 500 g/ha, spray on Chinese cabbage disks
[8] = tested on: green peach aphid (Myzus persicae); experiment: Myzus test (spray treatment); conditions: 500 g/ha, spray on Chinese cabbage disks
[9] = tested on: greenhouse red spider mite (Tetranychus urticae); experiment: Tetranychus test (OP resistance/spray treatment); conditions: 500 g/ha, spray on bean leaf disks

SMILES	activity (herbicidal effect) against Lolium multiflorum (Lolium multiflorum [1])	activity (herbicidal effect) against Echinocloa crus-galli (Echinocloa crus-galli)	activity (herbicidal effect) against Setaria viridis (Setaria viridis [2])	activity (herbicidal effect) against Avena sativa (Avena sativa [3])	activity (herbicidal effect) against Lolium multiflorum (Lolium multiflorum [4])	activity (herbicidal effect) against Setaria viridis (Setaria viridis [5])	activity (herbicidal effect) against Avena sativa (Avena sativa [6])	kill rate in % after 7 d [7]	kill rate in % after 5 d [8]	kill rate in % after 5 d [9]
CCc1cc(C)cc(OC)c1C1=C(O)C2(CCC(OC)CC2)NC1=O (single isomer, unassigned) [Example I-a-6]	≥ 90%	≥ 90%	≥ 90%	≥ 80%	≥ 80%	≥ 80%	≥ 90%	≥ 80%	–	–
CCc1cc(C)cc(OC)c1C1=C(O)C2(CCC(C)CC2)NC1=O (single isomer, unassigned) [I-a-5]	≥ 90%	≥ 90%	≥ 90%	≥ 80%	≥ 80%	≥ 80%	≥ 90%	–	≥ 90%	–
CCOC(=O)OC1=C(c2c(CC)cc(C)cc2OC)C(=O)NC12CCC(OC)CC2 (single isomer, unassigned) [I-c-4]	≥ 90%	≥ 90%	≥ 90%	≥ 80%	≥ 80%	≥ 80%	≥ 90%	≥ 80%	≥ 90%	–
CCc1cc(C)cc(OC)c1C1=C(O)C(CC)N(C)C1=O (stereo not drawn) [Example I-a-1]	≥ 90%	≥ 90%	≥ 90%	–	–	–	≥ 90%	–	–	–
CCc1cc(C)cc(OC)c1C1=C(O)C2CCCN2C1=O (stereo not drawn) [Example I-a-2]	≥ 90%	≥ 90%	≥ 90%	≥ 80%	≥ 80%	≥ 80%	≥ 90%	–	–	–
CCc1cc(C)cc(OC)c1C1=C(O)C(C)(C2CC2)NC1=O (stereo not drawn) [Example I-a-4]	≥ 90%	≥ 90%	≥ 90%	–	–	–	≥ 90%	–	–	≥ 70%
CCc1cc(C)cc(OC)c1C1=C(OC(=O)COC)C(C)(C2CC2)NC1=O (stereo not drawn) [Example I-b-1]	≥ 90%	≥ 90%	≥ 90%	–	–	–	≥ 90%	–	–	≥ 70%
CCc1cc(C)cc(OC)c1C1=C(O)C(C)(C)NC1=O [I-a-3]	≥ 90%	≥ 90%	≥ 90%	≥ 80%	≥ 80%	≥ 80%	≥ 90%	–	–	–
CCOC(=O)OC1=C(c2c(CC)cc(C)cc2OC)C(=O)NC1(C)C1CC1 (stereo not drawn) [I-c-5]	≥ 90%	≥ 90%	≥ 90%	–	–	–	≥ 90%	–	–	–
